{"source": "paper PMC2796999", "binders": {"B1": {"name": "occludin (protein, UniProt Q61146 1-521)", "chain": "MSVRPFESPPPYRPDEFKPNHYAPSNDMYGGEMHVRPMLSQPAYSFYPEDEILHFYKWTSPPGVIRILSMLIIVMCIAIFACVASTLAWDRGYGTGLFGGSLNYPYSGFGYGGGYGGGYGGYGYGYGGYTDPRAAKGFLLAMAAFCFIASLVIFVTSVIRSGMSRTRRYYLIVIIVSAILGIMVFIATIVYIMGVNPTAQASGSMYGSQIYMICNQFYTPGGTGLYVDQYLYHYCVVDPQEAIAIVLGFMIIVAFALIIFFAVKTRRKMDRYDKSNILWDKEHIYDEQPPNVEEWVKNVSAGTQDMPPPPSDYAERVDSPMAYSSNGKVNGKRSYPESFYKSTPLVPEVAQEIPLTLSVDDFRQPRYSSNGNLETPSKRAPTKGKAGKGKRTDPDHYETDYTTGGESCEELEEDWVREYPPITSDQQRQLYKRNFDAGLQEYKSLQAELDDVNKELSRLDKELDDYREESEEYMAAADEYNRLKQVKGSADYKSKRNYCKQLKSKLSHIKRMVGDYDRRKP"}}, "target": "T1, FADD (Fas-associated death domain protein) (mouse (endogenous in Eph4)) (UniProt Q61160)", "T1 sequence": "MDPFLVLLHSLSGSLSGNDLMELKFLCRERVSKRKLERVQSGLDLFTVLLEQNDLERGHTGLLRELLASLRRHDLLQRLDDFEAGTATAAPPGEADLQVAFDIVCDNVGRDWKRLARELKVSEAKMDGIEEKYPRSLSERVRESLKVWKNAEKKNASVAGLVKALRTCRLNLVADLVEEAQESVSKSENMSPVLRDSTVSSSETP", "test": "co-IP; Eph4 cells treated with 800 uM LYHY peptide for 5 hrs or left untreated; lysate (1% Triton X-100, 150 mM NaCl, 500 ug protein) precipitated with mouse anti-FADD antibody and protein A/G agarose beads at room temperature, washes including 500 mM NaCl; blotted with rabbit anti-occludin …", "note": "Results are given in words; binding and its absence hold for the method and conditions named. In cells and extracts the contact can be indirect. Some entries that bind do so weakly or less than the wild type."}
{"binder": "B1", "values": [{"measurement": "binding", "value": "binds"}]}
